# Screening data, single-dose tests

Sequences of proteins named here, by UniProt entry; tags and fusion partners are left off. Residues count along the entry.
UniProt Q4DA54, 1-478: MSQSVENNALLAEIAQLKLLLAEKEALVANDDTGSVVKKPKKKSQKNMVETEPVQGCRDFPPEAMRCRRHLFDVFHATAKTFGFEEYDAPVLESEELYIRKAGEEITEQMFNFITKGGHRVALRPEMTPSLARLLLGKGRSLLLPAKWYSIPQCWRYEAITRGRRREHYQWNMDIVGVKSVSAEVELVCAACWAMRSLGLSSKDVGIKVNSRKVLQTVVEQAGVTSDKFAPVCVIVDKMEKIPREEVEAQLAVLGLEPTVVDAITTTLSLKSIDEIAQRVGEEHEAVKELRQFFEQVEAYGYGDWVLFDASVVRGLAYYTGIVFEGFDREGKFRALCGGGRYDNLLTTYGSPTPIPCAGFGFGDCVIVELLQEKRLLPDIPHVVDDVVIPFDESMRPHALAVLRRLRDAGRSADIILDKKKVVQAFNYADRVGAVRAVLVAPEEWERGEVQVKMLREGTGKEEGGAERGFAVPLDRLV
UniProt A4I591, 1-473: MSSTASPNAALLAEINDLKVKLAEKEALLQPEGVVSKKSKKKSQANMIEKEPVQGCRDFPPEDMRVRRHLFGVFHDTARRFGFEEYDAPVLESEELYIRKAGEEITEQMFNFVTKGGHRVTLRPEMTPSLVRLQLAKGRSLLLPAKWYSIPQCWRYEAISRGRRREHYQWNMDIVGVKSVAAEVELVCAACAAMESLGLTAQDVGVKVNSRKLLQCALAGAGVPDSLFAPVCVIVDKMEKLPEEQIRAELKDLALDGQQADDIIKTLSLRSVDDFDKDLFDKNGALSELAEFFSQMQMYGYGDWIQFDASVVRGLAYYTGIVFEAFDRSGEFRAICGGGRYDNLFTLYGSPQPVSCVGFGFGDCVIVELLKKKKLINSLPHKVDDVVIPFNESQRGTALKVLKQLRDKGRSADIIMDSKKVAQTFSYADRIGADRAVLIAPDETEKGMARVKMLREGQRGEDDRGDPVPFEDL
UniProt Q8IDJ8, 1-583: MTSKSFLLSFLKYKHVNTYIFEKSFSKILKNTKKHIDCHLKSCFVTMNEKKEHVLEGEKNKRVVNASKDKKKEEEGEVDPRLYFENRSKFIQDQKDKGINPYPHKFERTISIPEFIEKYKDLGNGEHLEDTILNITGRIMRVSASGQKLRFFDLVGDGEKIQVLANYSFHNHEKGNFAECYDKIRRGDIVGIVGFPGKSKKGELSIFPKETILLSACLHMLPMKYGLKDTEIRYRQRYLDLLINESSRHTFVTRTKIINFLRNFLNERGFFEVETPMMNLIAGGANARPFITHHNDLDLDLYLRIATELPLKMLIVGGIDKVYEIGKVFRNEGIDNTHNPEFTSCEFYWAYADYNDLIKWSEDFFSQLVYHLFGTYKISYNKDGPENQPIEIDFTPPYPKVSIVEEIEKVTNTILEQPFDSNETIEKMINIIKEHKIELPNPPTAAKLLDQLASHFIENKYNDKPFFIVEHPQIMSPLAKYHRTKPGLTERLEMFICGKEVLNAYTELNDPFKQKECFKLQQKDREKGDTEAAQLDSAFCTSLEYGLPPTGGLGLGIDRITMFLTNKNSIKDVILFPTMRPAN

Source: ChEMBL document CHEMBL3988442, “University of Dundee, Small-Polar-MMV Screening Library” (2021).

A: 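Enzyme assay of histidyl-tRNA synthetase; the read-out is not stated. Target: Histidine-tRNA ligase, Trypanosoma cruzi CL Brener (UniProt Q4DA54). Compounds at 30 µM. Higher reads as stronger inhibition (inferred: compounds with an IC50 in retests scored well above the rest). About 69,000 compounds were tested under these conditions; 0.045% (about 31) showed 50% or more at least once.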
B: 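Enzyme assay of histidyl-tRNA synthetase; the read-out is not stated. Target: Histidine-tRNA ligase, Leishmania infantum (UniProt A4I591). Concentration: 30 µM. Higher reads as stronger inhibition (inferred: compounds with an IC50 in retests scored well above the rest). The assay is labelled LdHisRS but filed under L. infantum. Of about 69,000 compounds tested this way, about 410 (0.6%) reached 50% or more in at least one test.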
C: 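Lysine-tRNA ligase, Plasmodium falciparum 3D7 (UniProt Q8IDJ8). Enzyme assay of the cytosolic lysyl-tRNA synthetase in 384-well plates, read by luminescence. Concentration: 30 µM. Higher reads as stronger inhibition, judged from the few compounds that gave an IC50. About 69,000 compounds were tested under these conditions; 0.071% (about 49) showed 50% or more at least once.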

Results are given as percent effect.
How 0% and 100% were set is not recorded. Most values in the screen are low, and negative values occur.
The compounds are a random part of those screened.

{"structure": "O=C(NC[C@]12COC[C@H]1CN(Cc1nccs1)C2)c1ccccc1", "A": -1.639, "B": 17.48, "C": 5.283}
{"structure": "COC(C)(C)CNC(=O)C1CCC(=O)N(C2CCCC2)C1", "stereo": "centres undefined", "A": 5.435, "B": 9.091, "C": 2.956}
{"structure": "CCN1CC2(CCC1=O)CCN(Cc1nncn1C)CC2", "A": 9.211, "B": 10.83, "C": -1.342}
{"structure": "Cc1nc[nH]c1-c1nccn1CCN1CCCOC1=O", "A": 15.84, "B": 11.9, "C": -2.017}
{"structure": "CCc1ccccc1OC1CN(C(=O)CN(C)Cc2cccnc2)C1", "A": -3.59, "B": 12.7, "C": 1.607}
{"structure": "COc1cccc(C(O)CN2CCN(C(=O)c3ccsc3)CC2)c1", "stereo": "centres undefined", "A": 5.747, "B": 15.38, "C": 2.389}
{"structure": "CCS(=O)(=O)N1CC[C@H]2CO[C@H](CN(C)C)[C@H]2C1", "A": 5.882, "B": 0.9174, "C": 6.743}
{"structure": "Cc1nc(O)cc(CCNc2nc(N(C)C)nc(C)c2C)n1", "A": 2.597, "B": -5.714, "C": 1.169}
{"structure": "COc1cccc2c1OCC(C(=O)NCCc1nc3c(s1)CCC3)C2", "stereo": "centres undefined", "A": 6.627, "B": 8.791, "C": -0.8828}
{"structure": "Clc1ccccc1OC1CCN(CC2CCOC2)CC1", "stereo": "centres undefined", "A": 11.11, "B": 19.35, "C": 5.855}
{"structure": "CCC1CN(CC(=O)Nc2cc(C)nn2C)CCO1", "stereo": "centres undefined", "A": 0.8403, "B": 9.917, "C": 12.81}
{"structure": "O=C(NCCOc1ccccc1)Nc1cc(C(F)(F)F)c[nH]c1=O", "A": 4.956, "B": 11.01, "C": -0.0327}
{"structure": "CC(=O)N1CCCC1C(=O)NCCOc1ccc(C(C)C)cc1", "stereo": "centres undefined", "A": 6.857, "B": 9.615, "C": 1.259}
{"structure": "Cc1nn(C2CCCC2)c2c1C(c1ccc3c(c1)OCO3)SCC(=O)N2", "stereo": "centres undefined", "A": -1.242, "B": 0, "C": 1.015}
{"structure": "COc1ccc(F)c(CN2CCC3(CCC(=O)N(CC(N)=O)C3)CC2)c1", "A": 2.075, "B": 4.854, "C": 1.001}
{"structure": "CC(=O)N1CCN(CCNS(=O)(=O)c2ccc(F)c(F)c2)CC1", "A": 10.55, "B": 17.98, "C": 2.431}
{"structure": "COc1nn(C)cc1C(=O)NCC(OC)c1ccccc1C", "stereo": "centres undefined", "A": -0.4878, "B": 5.085, "C": 3.774}
{"structure": "Cc1noc(CN2CCN(C(C)C(=O)NCc3cccs3)CC2)n1", "stereo": "centres undefined", "A": 4.433, "B": 6.579, "C": 6.012}
{"structure": "Cc1ccc(NC(=O)N(C)Cc2cnn(C)c2)c(C)c1", "A": 0.8721, "B": 14.91, "C": 0.4023}

For reference, 2 entries once more:

- Cc1nc(O)cc(CCNc2nc(N(C)C)nc(C)c2C)n1 : A: 2.597%; B: -5.714%; C: 1.169%
- COc1ccc(F)c(CN2CCC3(CCC(=O)N(CC(N)=O)C3)CC2)c1 : A: 2.075%; B: 4.854%; C: 1.001%